Source: paper PMC4471349
Results are given in words; binding and its absence hold for the method and conditions named.

Target: T1, Agα1p (C-terminal half of S. cerevisiae α-agglutinin) displayed on P. pastoris control cells (S. cerevisiae) (UniProt P20840)
T1 sequence: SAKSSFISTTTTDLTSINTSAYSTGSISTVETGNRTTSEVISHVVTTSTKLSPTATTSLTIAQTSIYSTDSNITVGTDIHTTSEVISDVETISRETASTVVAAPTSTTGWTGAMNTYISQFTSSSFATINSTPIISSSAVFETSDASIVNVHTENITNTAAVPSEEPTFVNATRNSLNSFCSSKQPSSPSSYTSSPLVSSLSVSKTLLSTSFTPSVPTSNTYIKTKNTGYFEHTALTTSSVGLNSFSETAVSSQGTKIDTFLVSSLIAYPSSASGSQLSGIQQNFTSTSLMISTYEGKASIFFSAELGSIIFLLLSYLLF
Assay: ELISA; whole-cell sandwich ELISA: yeast cells (OD600 = 10, 10^8 cells/ml) displaying the target incubated with purified protein (10 to 2×10^4 ng/ml) in PBS with 1% BSA, room temperature, 1 h; bound protein detected with polyclonal rabbit antibody and HRP anti-rabbit IgG; only the binder purified

Which binding does the source give for “purified PmRab7 (free, unmodified) (Penaeus monodon)” here?
Its binding is “no binding (tested: 2×10^4 ng/ml)”.

With “purified VP28 (free, unmodified) (white spot syndrome virus (WSSV))” as the substance, how does the binding read?
The binding was “no binding (tested: 2×10^4 ng/ml)”.
